Results are given in words; binding and its absence hold for the method and conditions named. In cells and extracts the contact can be indirect. Binding calls can cover weak binding; strength is not graded here.
Legend:
Experiment in all cases: cross-linking
[1] = biological target: FepA D455C (Escherichia coli K-12) (UniProt P05825)
[2] = biological target: FepA D422C (Escherichia coli K-12) (UniProt P05825)
[3] = biological target: FepA D34C (Escherichia coli K-12) (UniProt P05825)

Protein sequences, listed by entry. Tags and fused reporters are not part of them. Lines headed by an entry give the natural chain unless they say otherwise; changes in a name come on top.
UniProt P05825: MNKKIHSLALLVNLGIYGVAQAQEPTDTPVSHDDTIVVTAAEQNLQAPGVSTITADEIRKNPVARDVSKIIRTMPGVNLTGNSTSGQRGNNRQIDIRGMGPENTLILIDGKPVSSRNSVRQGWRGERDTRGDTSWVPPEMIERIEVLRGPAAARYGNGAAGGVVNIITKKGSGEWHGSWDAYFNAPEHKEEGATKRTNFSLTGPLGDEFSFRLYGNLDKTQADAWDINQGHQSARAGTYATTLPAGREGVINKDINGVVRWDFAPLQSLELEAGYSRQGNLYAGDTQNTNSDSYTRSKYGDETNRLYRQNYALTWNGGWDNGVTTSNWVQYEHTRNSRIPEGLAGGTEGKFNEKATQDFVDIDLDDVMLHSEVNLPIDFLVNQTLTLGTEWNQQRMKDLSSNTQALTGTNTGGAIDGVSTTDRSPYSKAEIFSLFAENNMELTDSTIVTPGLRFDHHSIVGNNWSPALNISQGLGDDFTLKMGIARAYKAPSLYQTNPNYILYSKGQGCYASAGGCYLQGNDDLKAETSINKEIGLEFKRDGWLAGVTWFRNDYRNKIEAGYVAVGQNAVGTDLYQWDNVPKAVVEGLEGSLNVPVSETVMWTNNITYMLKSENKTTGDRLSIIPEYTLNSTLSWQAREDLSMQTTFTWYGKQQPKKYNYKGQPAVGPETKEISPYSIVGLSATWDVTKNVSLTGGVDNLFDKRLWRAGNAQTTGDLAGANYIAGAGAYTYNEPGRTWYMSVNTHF
UniProt P02929: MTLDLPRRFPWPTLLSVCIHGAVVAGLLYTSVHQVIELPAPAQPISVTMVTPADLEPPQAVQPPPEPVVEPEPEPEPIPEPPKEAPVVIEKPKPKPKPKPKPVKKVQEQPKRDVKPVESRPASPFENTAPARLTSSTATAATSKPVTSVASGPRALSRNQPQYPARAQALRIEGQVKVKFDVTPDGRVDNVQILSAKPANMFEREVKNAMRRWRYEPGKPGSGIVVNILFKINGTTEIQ

Substance	binding [1]	binding [2]	binding [3]
TonB C18G Q160C (from UniProt P02929 1-239)	no binding	no binding	
TonB C18G H20A R204C (from UniProt P02929 1-239)		binds	
TonB C18G H20A R212C (from UniProt P02929 1-239)	binds		
TonB C18G A209C (from UniProt P02929 1-239)	no binding	no binding	no binding
TonB C18G R204C (from UniProt P02929 1-239)		binds	binds
TonB C18G H20A N208C (from UniProt P02929 1-239)		binds	
TonB C18G N208C (from UniProt P02929 1-239)		binds	
TonB C18G V206C (from UniProt P02929 1-239)	no binding	no binding	no binding
TonB C18G R212C (from UniProt P02929 1-239)	binds	binds	

Source: article doi:10.1101/2021.12.08.471779
